# According to patent US20230346764A1, “Methods and Compositions for Treating Pruritus, Xerosis, and Associated Disease Using CCR3-Inhibitors” (Alkahest, Inc., priority 2017, published 2023):
# For at least one compound, name, drawing or mass did not settle the structure.
# Key:
# SKH-1 Elite mice [1] = assay: Oxazolone model of chronic skin inflammation: skin dryness/scaling visual score; format: in vivo, mouse; settings: by day 17; PO from Day 0; Compound 1 30 mg/kg b.i.d., Dexamethasone 1.5 mg/kg q.d.
# SKH-1 Elite mice [2] = assay: Oxazolone model of chronic skin inflammation: blood eosinophil levels by flow cytometry; format: in vivo, mouse; settings: day 29; PO; Compound 1 30 mg/kg b.i.d., Dexamethasone 1.5 mg/kg q.d.
smiles,measurement,setting,value
C[C@@H]1C[C@H]2[C@@H]3CCC4=CC(=O)C=C[C@]4(C)[C@@]3(F)[C@@H](O)C[C@]2(C)[C@@]1(O)C(=O)CO [Dexamethasone],skin dryness/scaling score (0-4),SKH-1 Elite mice [1],exhibited efficacy at reducing skin dryness
same,blood eosinophil levels as percentage of total white blood cells,SKH-1 Elite mice [2],more severe reduction of eosinophil levels
